Assay results from patent publication US20200172631A1, “ERBB2/HER2 MUTATIONS IN THE TRANSMEMBRANE OR JUXTAMEMBRANE DOMAIN” (GENENTECH, INC., priority 2017, published 2020).
For at least one compound, name, drawing or mass did not settle the structure.

System: TM/JM Her2 mutants expressed in BaF3 cells
Assay: BaF3 cell viability assay, all Her2 TM/JM mutants tested
Format: cell-based, human
Details: BaF3 system, all Her2 TM/JM mutants tested (FIG. 7)

Q: How did the “response of Her2 TM/JM mutants to ERBB2 kinase inhibitory small molecule drugs, effect on cell survival” value turn out when CN(C)C/C=C/C(=O)Nc1cc2c(Nc3ccc(F)c(Cl)c3)ncnc2cc1O[C@H]1CCOC1 [afatinib] was run?
A: respond
